# In the supplement of paper PMC12067093, “Discovery and optimisation of a covalent ligand for TRIM25 and its application to targeted protein ubiquitination” (Chemical Science, 2025):
# The other results are listed elsewhere or left out.
# Compound: Cc1cc(ccc1-c1ccccc1)C(=O)N1CCCN(CC1)C(=O)CCl [compound 10]
# Assay: probe-labelled cysteine peptide fold change vs DMSO (competition) (log2 fold change); higher = less target engagement (more negative = stronger competition)
# Conditions: 10 µM; THP-1; incubation time: 4 h
# 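Also: competitive profiling in live THP-1 cells: cysteine peptides tagged with an iodoacetamide desthiobiotin (IA-DTB) probe, intensity after compound treatment relative to DMSO-treated cells.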
row,Target,probe-labelled cysteine peptide fold change
1,DHX57_Q6P158_221_MCDGDVGASLEHLLTQCFSETFGER (UniProt Q6P158),-0.0821
2,DHX37_Q8IY37_1116_ADCHEALLAAWK (UniProt Q8IY37),-0.0208
3,DLD_P09622_484_VCHAHPTLSEAFR (UniProt P09622),0.032
4,DHX36_Q9H2U1_234_ELVNLIDNHQVTVISGETGCGK (UniProt Q9H2U1),0.173
5,DIDO1_Q9BTC0_455_CGAQAGIK (UniProt Q9BTC0),-0.139
6,DICER1_Q9UPY3_1584_AAQLFLCSLGLK (UniProt Q9UPY3),0.111
7,DNAJB14_Q8TBM8_77_KPSGSGDQSKPNCTK (UniProt Q8TBM8),0.00149
8,DKK2_Q9UBU2_214_ICKPVLHQGEVCTK (UniProt Q9UBU2),-0.0653
9,DIS3L2_Q8IYB7_797_IYCNALALR (UniProt Q8IYB7),0.475
10,DIS3L2_Q8IYB7_196_LSVCVSEK (UniProt Q8IYB7),-0.124
11,DNAJA1_P31689_261_RGEDLFMCMDIQLVEALCGFQKPISTLDNR (UniProt P31689),0.262
12,DLST_P36957_245_EAQNTCAMLTTFNEIDMSNIQEMR (UniProt P36957),0.0882
13,DNMT1_P26358_664_CGVCEVCQQPECGK (UniProt P26358),-0.0666
14,DNAJA1_P31689_134_NVICDK (UniProt P31689),0.105
15,DNAJC7_Q99615_175_ALEFAPACHR (UniProt Q99615),-0.118
16,DNAJC16_Q9Y2G8_744_GKPSCGLGSRPIK (UniProt Q9Y2G8),-0.538

# Shown as tab-separated lines: part of the list above
row	Target	probe-labelled cysteine peptide fold change
12	DLST_P36957_245_EAQNTCAMLTTFNEIDMSNIQEMR (UniProt P36957)	0.0882
13	DNMT1_P26358_664_CGVCEVCQQPECGK (UniProt P26358)	-0.0666
